Results are given in words; binding and its absence hold for the method and conditions named.
B1: anti-CDH17 recombinant antibody 14B12 (human IgG1) (antibody, V domains shown)
VH: QVQLQESGPGLVKPSETLSLTCTVSGGSINTYYRSWIRQPPGKGLEWIGYIYYSGNTNYNPSLKSRVTISADTSKNQFSLNLISVTAADTAMYYCARAQYGEEAFDIWGQGTLVTVSS
VL: DIQMTQSPSSLSASVGDRVTITCRASQSITTYLNWYQQKPGKAPQLLIFAASRLQTGVPSRFSGSGSGTDFTLTISSLLPGDFATYYCQQSYNTPPTFGGGTKVEIKR
B2: anti-CDH17 recombinant antibody 10E11 (human IgG1) (antibody, V domains shown)
VH: EVQLVQSGTEVKKPGESLKISCKDSGYRFSSYWIGWVRQMPGKGLEWMGIIYPGDSDTRYSPSFQGQVTISADKSISTAYLQWRSLKASDTAMYYCARRGWVNYFDYWGQGTLVTVSS
VL: DIQMTQSPSSVSASVGDRVTITCRASQGISNWLGWYQQKPGKAPKLLIYAASSLQSGVPSRFSGSGSGTDFTLTISSLQPEDFATYYCQQANSFPLTFGGGTKVEIKR

The chains behind the UniProt entries cited, without tags or fusion partners. Residues count along the entry.
UniProt Q9R100, residues 26-786: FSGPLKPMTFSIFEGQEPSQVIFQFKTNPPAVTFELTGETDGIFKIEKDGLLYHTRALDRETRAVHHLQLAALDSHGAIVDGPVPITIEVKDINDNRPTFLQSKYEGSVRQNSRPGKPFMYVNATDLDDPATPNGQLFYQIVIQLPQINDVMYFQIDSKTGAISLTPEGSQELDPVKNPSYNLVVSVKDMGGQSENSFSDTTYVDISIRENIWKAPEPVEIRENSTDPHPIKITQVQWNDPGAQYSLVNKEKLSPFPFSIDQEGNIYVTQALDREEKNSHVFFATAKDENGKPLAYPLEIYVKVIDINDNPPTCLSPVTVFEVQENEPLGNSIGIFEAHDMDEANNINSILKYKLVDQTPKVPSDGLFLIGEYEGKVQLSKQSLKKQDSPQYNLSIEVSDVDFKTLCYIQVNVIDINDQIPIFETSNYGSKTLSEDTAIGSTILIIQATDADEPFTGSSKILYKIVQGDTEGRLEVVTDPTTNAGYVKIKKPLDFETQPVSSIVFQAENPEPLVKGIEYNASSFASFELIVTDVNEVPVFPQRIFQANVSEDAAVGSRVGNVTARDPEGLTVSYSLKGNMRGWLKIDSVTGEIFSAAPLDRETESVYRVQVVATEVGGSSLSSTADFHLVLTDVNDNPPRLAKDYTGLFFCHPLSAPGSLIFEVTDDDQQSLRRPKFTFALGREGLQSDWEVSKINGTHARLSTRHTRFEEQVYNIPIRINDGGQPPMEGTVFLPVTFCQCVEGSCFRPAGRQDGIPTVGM
UniProt P55281, residues 22-786: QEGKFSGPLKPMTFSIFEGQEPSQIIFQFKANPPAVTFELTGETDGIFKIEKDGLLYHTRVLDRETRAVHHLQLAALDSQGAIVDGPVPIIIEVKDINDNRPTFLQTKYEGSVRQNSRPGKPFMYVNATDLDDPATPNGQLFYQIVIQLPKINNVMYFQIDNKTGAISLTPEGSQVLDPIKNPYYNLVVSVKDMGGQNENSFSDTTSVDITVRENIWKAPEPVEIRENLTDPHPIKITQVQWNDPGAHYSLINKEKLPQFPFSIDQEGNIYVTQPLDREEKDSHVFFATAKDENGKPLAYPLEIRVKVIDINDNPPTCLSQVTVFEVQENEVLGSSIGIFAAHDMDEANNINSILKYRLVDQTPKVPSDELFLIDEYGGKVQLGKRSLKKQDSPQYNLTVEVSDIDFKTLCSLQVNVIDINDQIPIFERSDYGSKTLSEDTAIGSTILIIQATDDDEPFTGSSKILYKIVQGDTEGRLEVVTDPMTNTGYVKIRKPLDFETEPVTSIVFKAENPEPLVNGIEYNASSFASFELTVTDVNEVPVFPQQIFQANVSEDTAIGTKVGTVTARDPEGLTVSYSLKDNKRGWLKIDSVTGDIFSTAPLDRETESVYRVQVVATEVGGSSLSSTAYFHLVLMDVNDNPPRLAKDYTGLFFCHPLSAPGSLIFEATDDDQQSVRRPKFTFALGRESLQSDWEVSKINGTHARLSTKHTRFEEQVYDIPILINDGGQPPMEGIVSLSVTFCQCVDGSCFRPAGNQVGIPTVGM

Assays:
mouse CDH17 (mouse) = mouse CDH17 (mouse) (UniProt Q9R100); test: Octet (BLI), antibody captured on anti-hIgG Fc (AHC) sensor, antigen 200 nM in solution
rat CDH17 (rat) = rat CDH17 (rat) (UniProt P55281); test: Octet (BLI), antibody captured on anti-hIgG Fc (AHC) sensor, antigen 200 nM in solution [Continued]

Binder	binding (mouse CDH17 (mouse))	binding (rat CDH17 (rat))
B1	no binding (tested: 200 nM)	
B2	no binding (tested: 200 nM)	no binding (tested: 200 nM)

From patent publication US20260217819A1 (HANSOH BIO, published 2026)
